For 42 sequences, binding signal results are on record in publication PMC7819943, “Rice protein-binding microarrays: a tool to detect cis-acting elements near promoter regions in rice”.

By UniProt entry, the sequences of proteins in these tests, tags left out.
UniProt Q0JBA9, entry or part of it: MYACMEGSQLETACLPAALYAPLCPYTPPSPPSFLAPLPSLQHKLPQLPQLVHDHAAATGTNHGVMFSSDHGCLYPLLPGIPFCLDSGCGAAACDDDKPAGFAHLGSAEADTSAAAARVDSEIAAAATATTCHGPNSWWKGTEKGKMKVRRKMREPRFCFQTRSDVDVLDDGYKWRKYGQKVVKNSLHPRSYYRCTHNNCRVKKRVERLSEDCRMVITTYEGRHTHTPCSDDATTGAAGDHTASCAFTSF

The list shows a part of the results.

In the assay the target is OsWRKY34 (Oryza sativa, UniProt Q0JBA9 1-250). Nature of the assay: protein-binding microarray (RPBM); PBS, 2% BSA, 51.3 ng/ul salmon testes DNA, 50 uM zinc acetate, 200 nM TF, 25 C, 1 h; high values mean tight binding. The following applies: protein: recombinant; tags: N-terminal polyhistidine and DsRed monomer fusion (pET32a); label: CyDye5-dUTP incorporated in the synthesized complementary strand; 3' TTTTT single-stranded linker to array surface; dsDNA, one strand shown. The method, boiled down: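 Binding signal is defined as the fluorescence intensity of each feature in arbitrary units, read on an Axon 4000B scanner. Transcription factors with N-terminal polyhistidine and DsRed fusions came from E. coli BL21-CodonPlus and were purified on Ni–NTA. They were incubated at 200 nM for 1 h at 25 °C on a custom Agilent array that had been made double-stranded with Cy5-dUTP, with 50 µM zinc acetate present, and the array was washed.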
On to “GGAGGCGTATTTTTTGTGCGTAAAGGTGGACTCGAAACTCCGGAGTCACCTAGTGCAG”, for which the binding signal was 8500 fluorescence intensity (a.u.).
In the case of “ACAGTTATTTTTTCTGCGCTTTGCAAGTTGCAAATCTAAACGGAGTCACCTAGTGCAG”, the binding signal is 10400 fluorescence intensity (a.u.).
Regarding “CTTATGTCTCACTAAATATTTACTTTTGCCATCGGCAAATCGGAGTCACCTAGTGCAG”, the binding signal was 8080 fluorescence intensity (a.u.).
As to “CCACCCACTCGCTACCACTTTTTTTCCTTTGACTGAGTGTCGGAGTCACCTAGTGCAG”, the binding signal was 16200 fluorescence intensity (a.u.).
As for “GCTTTCACACTAGGTGAGCACTCCACTGCCTGCCTCCGGCCGGAGTCACCTAGTGCAG”, the binding signal was 9260 fluorescence intensity (a.u.).
Regarding “GGGCTTTGGGCTCTTGTATCGTCCCTGGGCCGTTCACCGCCGGAGTCACCTAGTGCAG”, the binding signal is 8080 fluorescence intensity (a.u.).
For the sequence “CTTCTCGCACCGCCGCCGCCGTTCACCGGAGTCTCCCTAACGGAGTCACCTAGTGCAG”, the binding signal was 8740 fluorescence intensity (a.u.).
For “CGTGGAGAGGATTTGAGTGCCTTTTTTGGAGTTTGAGGGGCGGAGTCACCTAGTGCAG”, the binding signal is 9570 fluorescence intensity (a.u.).
On to “CACCACCGTGCACTTCACAATTCACACTACTCCTTCAGATCGGAGTCACCTAGTGCAG”, for which the binding signal was 8340 fluorescence intensity (a.u.).
In the case of “TCGAGTTCCACATACGGTATTTTCTACTAGTACTCTATTTCGGAGTCACCTAGTGCAG”, the binding signal is 9970 fluorescence intensity (a.u.).
Take “GGGAGACGGCACCCCTCGCGTGGGAGGGGACAGGGGAAAGCGGAGTCACCTAGTGCAG”: the binding signal was 9460 fluorescence intensity (a.u.).
Under “GTGCTGGCTTTTTCTTTCTATAAACGTTTGATGAATTCTGCGGAGTCACCTAGTGCAG” stands 8290 fluorescence intensity (a.u.); under “ACGCCCCGGTCTACCTCTCTGTGCACCGACGACAGTGATGCGGAGTCACCTAGTGCAG”, 9210 fluorescence intensity (a.u.).
As for “TCCAAACCTGTATGCTTCGCCATAACACACGACAATTGACCGGAGTCACCTAGTGCAG”, the binding signal was 10700 fluorescence intensity (a.u.).
“GGTCGTCCGTCAGCATCCTCTCTCCGTCAAACTGTTTGGTCGGAGTCACCTAGTGCAG”: the binding signal was 11100 fluorescence intensity (a.u.).
As to “ACTTCATTCGCTCGGATACTCAAGACTTGGTAACCTAGCACGGAGTCACCTAGTGCAG”, the binding signal is 8090 fluorescence intensity (a.u.).
For “TCACCACACAAGGTCATATGACCTCAATTCCTTGCCATTCCGGAGTCACCTAGTGCAG”, the binding signal was 9340 fluorescence intensity (a.u.).
Regarding “TTCTATACGTTTAGGGTCTGTTTAGTTCACGTTTAGTTCACGGAGTCACCTAGTGCAG”, the binding signal was 9320 fluorescence intensity (a.u.).
“ATGTTTAAAAAAGTCAACGGCATTAAATATTTAGGGACGGCGGAGTCACCTAGTGCAG”: the binding signal was 13100 fluorescence intensity (a.u.).
Regarding “CGTCTGTTCTTTAAATGCGCTCGCCCAACTGCTCGCATCTCGGAGTCACCTAGTGCAG”, the binding signal is 9310 fluorescence intensity (a.u.).
On to “TTTTCCTATACCCACACCATCCATCCCTTCGCCGGTTTCGCGGAGTCACCTAGTGCAG”, for which the binding signal is 8150 fluorescence intensity (a.u.).
On to “GTGATATAGAGTTTTTGTATTTCCATATTTTGCTTATAGACGGAGTCACCTAGTGCAG”, for which the binding signal was 8890 fluorescence intensity (a.u.).
Under “GAGCTTTTATTTGAGTCTATCTCTCTCGTCTAATTTATACCGGAGTCACCTAGTGCAG” stands 8710 fluorescence intensity (a.u.).
The same measure for “TGTGCTGTGTGGTGTACTGGTGTGTGGGCTTAATAATTGTCGGAGTCACCTAGTGCAG”: 14200 fluorescence intensity (a.u.); for “ACCCCTAATGGCAGCTTTTCCGTTCTGCGCTTTTACTTCCCGGAGTCACCTAGTGCAG”: 15200 fluorescence intensity (a.u.); for “TGTTCCTTTCGCGCATGGTCGACGCCTTTTCCCTGTTCAACGGAGTCACCTAGTGCAG”: 10900 fluorescence intensity (a.u.).
On to “AAATATAATTCCGTGCCTTGTTAATATATCTCTGTTATCCCGGAGTCACCTAGTGCAG”, for which the binding signal was 12800 fluorescence intensity (a.u.).
Regarding “CATTCTCCACCACCGCTCCCTAGCACACGAGAGAGACGACCGGAGTCACCTAGTGCAG”, the binding signal was 8800 fluorescence intensity (a.u.).
On to “TTTTCCCAACTCACCTTTCTTGTTTTCCGCGCACACGCATCGGAGTCACCTAGTGCAG”, for which the binding signal was 12100 fluorescence intensity (a.u.).
“CTGCTATAGATTGCTCTGTCCATTTACATTTGGTTTCTTGCGGAGTCACCTAGTGCAG”: the binding signal is 11100 fluorescence intensity (a.u.).
“GTGATAGATATATGGGGCCAAGGGCATTTCTGACCCTTTTCGGAGTCACCTAGTGCAG”: the binding signal was 9120 fluorescence intensity (a.u.).
Turning to “GCCGTATCTTCTGCGTTGACCAGATCCTTCACTGTCACGCCGGAGTCACCTAGTGCAG”, the binding signal was 19200 fluorescence intensity (a.u.).
Take “GCTCGCCAGTTCGTCGTCCTCTTCGCCGAGCTCGCGAGCTCGGAGTCACCTAGTGCAG”: the binding signal was 9250 fluorescence intensity (a.u.).
As for “CGTAAGCTCTCCAGTTCAAATGGTCTTCTCGTGGGCCTCTCGGAGTCACCTAGTGCAG”, the binding signal is 9390 fluorescence intensity (a.u.).
Regarding “TGTGAGTAGTTTGTGGTTGGGAGTGTAACGGGTGGGGTGGCGGAGTCACCTAGTGCAG”, the binding signal was 16900 fluorescence intensity (a.u.).
The same measure for “CCTCGAGCTGTGCACGGCTGGTTCGTCTCGCGCCGCTTATCGGAGTCACCTAGTGCAG”: 10900 fluorescence intensity (a.u.); for “CGCCCCACGACCTTTTTCCCATCACCCGCCCGCGCGCGCGCGGAGTCACCTAGTGCAG”: 10900 fluorescence intensity (a.u.).
With “GTCTCGCTCTTCCTCGGGTTCCGCTTCTCCAGGCTCCTCTCGGAGTCACCTAGTGCAG”, the binding signal is 8870 fluorescence intensity (a.u.).
For “GCCATGTCCTGGTCGTGACGCCCACCTACTCCCGCGCGTTCGGAGTCACCTAGTGCAG”, the binding signal is 10600 fluorescence intensity (a.u.).
As for “TATATATATATATATATATATAGACACACACACGCCAATCCGGAGTCACCTAGTGCAG”, the binding signal is 9920 fluorescence intensity (a.u.).
Turning to “GTTCAGTTGTGTTGTGATCTTCTTCTGTGTTCCTCAGCTGCGGAGTCACCTAGTGCAG”, the binding signal was 12000 fluorescence intensity (a.u.).
On to “TTTTAATTAATCGTCACCAGATTGTTTTTTTTCTTTCTTTCGGAGTCACCTAGTGCAG”, for which the binding signal is 12400 fluorescence intensity (a.u.).
